{"source": "patent US7888090B2", "about": "“Mutants of O6-alkylguanine-DNA alkyltransferase” (Ecole Polytechnique Federale de Lausanne, priority 2004, dated 2011)", "molecules": {"B1": {"name": "AGTM: AGT mutant Cys62Ala, Gln115Ser, Gln116His, Lys125Ala, Ala127Thr, Arg128Ala, Gly131Lys, Gly132Thr, Met134Leu, Arg135Ser, Cys150Asn, Ser151Ile, Ser152Asn, Asn157Gly, Ser159Glu, truncated after … (protein, UniProt P16455 1-207, looked up, variant C62A Q115S Q116H K125A A127T R128A G131K G132T M134L R135S C150N S151I S152N N157G S159E del183-207)", "Methylated-DNA--protein-cystei …": "MDKDCEMKRTTLDSPLGKLELSGCEQGLHEIKLLGKGTSAADAVEVPAPAAVLGGPEPLMQATAWLNAYFHQPEAIEEFPVPALHHPVFQQESFTRQVLWKLLKVVKFGEVISYSHLAALAGNPAATAAVKTALSGNPVPILIPCHRVVNINGAVGGYEGGLAVKEWLLAHEGHRLGKPGLG", "modifications": "His tag"}, "B2": {"name": "Cys62Ala, Gln115Ser, Gln116His, Lys125Ala, Ala127Thr, Arg128Ala, Cys150Asn, Ser151Ile, Ser152Asn, Asn157Gly, Ser159Glu, truncated after Gly182: particularly preferred hAGT mutant with the listed … (protein, UniProt P16455 1-207, looked up, variant C62A Q115S Q116H K125A A127T R128A C150N S151I S152N N157G S159E del183-207)", "Methylated-DNA--protein-cystei …": "B1 Methylated-DNA--protein-cystei … with K131G, T132G, L134M, S135R"}, "B3": {"name": "Cys62Ala, Lys125Ala, Ala127Thr, Arg128Ala, Asn157Gly, Ser159Glu, truncated after Gly182: particularly preferred hAGT mutant with the listed mutations (protein, UniProt P16455 1-207, looked up, variant C62A K125A A127T R128A N157G S159E del183-207)", "Methylated-DNA--protein-cystei …": "B1 Methylated-DNA--protein-cystei … with S115Q, H116Q, K131G, T132G, L134M, S135R, N150C, I151S, N152S"}, "B4": {"name": "truncated PGEG-hAGT: PGEG-hAGT (Asn157Gly, Ser159Glu) truncated after codon 182 (protein, UniProt P16455 1-207, looked up, variant N157G S159E del183-207)", "Methylated-DNA--protein-cystei …": "MDKDCEMKRTTLDSPLGKLELSGCEQGLHEIKLLGKGTSAADAVEVPAPAAVLGGPEPLMQCTAWLNAYFHQPEAIEEFPVPALHHPVFQQESFTRQVLWKLLKVVKFGEVISYQQLAALAGNPKAARAVGGAMRGNPVPILIPCHRVVCSSGAVGGYEGGLAVKEWLLAHEGHRLGKPGLG"}, "B5": {"name": "Gly131Lys, Gly132Thr, Met134Leu, Arg135Ser, Asn157Gly, Ser159Glu: hAGT mutant with the listed mutations, selected by phage display (protein, UniProt P16455 1-207, looked up, variant G131K G132T M134L R135S N157G S159E)", "Methylated-DNA--protein-cystei …": "MDKDCEMKRTTLDSPLGKLELSGCEQGLHEIKLLGKGTSAADAVEVPAPAAVLGGPEPLMQCTAWLNAYFHQPEAIEEFPVPALHHPVFQQESFTRQVLWKLLKVVKFGEVISYQQLAALAGNPKAARAVKTALSGNPVPILIPCHRVVCSSGAVGGYEGGLAVKEWLLAHEGHRLGKPGLGGSSGLAGAWLKGAGATSGSPPAGRN"}, "B6": {"name": "Wild type hAGT: wild type human O^6-alkylguanine-DNA alkyltransferase (SEQ ID NO:1); GST-hAGT is its GST fusion (protein, listed as Homo sapiens)", "chain": "B5 Methylated-DNA--protein-cystei … with K131G, T132G, L134M, S135R, G157N, E159S"}, "B7": {"name": "Lys125Ala, Ala127Thr, Arg128Ala, Asn157Gly, Ser159Glu: hAGT mutant with the listed mutations, expressed as GST fusion (protein, UniProt P16455 1-207, looked up, variant K125A A127T R128A N157G S159E)", "Methylated-DNA--protein-cystei …": "B5 Methylated-DNA--protein-cystei … with K125A, A127T, R128A, K131G, T132G, L134M, S135R", "modifications": "GST fusion"}, "B8": {"name": "Gln115Ser, Gln116His, Cys150Asn, Ser151Ile, Ser152Asn, Asn157Gly, Ser159Glu: hAGT mutant with the listed mutations, selected by phage display (protein, UniProt P16455 1-207, looked up, variant Q115S Q116H C150N S151I S152N N157G S159E)", "Methylated-DNA--protein-cystei …": "B5 Methylated-DNA--protein-cystei … with Q115S, Q116H, K131G, T132G, L134M, S135R, C150N, S151I, S152N"}, "B9": {"name": "Cys62Ala, Lys125Ala, Ala127Thr, Arg128Ala, Asn157Gly, Ser159Glu: hAGT mutant with the listed mutations (protein, UniProt P16455 1-207, looked up, variant C62A K125A A127T R128A N157G S159E)", "Methylated-DNA--protein-cystei …": "B5 Methylated-DNA--protein-cystei … with C62A, K125A, A127T, R128A, K131G, T132G, L134M, S135R"}}, "key": {"[1]": {"test_system": "CHO-cells deficient in endogenous AGT", "assay": "In vivo localization by confocal microscopy", "format": "cell-based", "conditions": "for localization of fluorescently labeled AGT: CHO cells"}, "[2]": {"assay": "Expression yield of soluble GST-AGT fusion protein", "design": "species or system E. coli", "conditions": "for yield of soluble GST fusion protein: E. coli", "method": "Expression yield is measured in E. coli or in any other of the standard production cells for genetically modified proteins, e.g. yeast, or preferably insect cells, CHO cells or HeLa cells. For quantifying expression yield, AGT fusion proteins may be chosen such that the fusion partner allows easy purification and quantification. For example, expression yield in E. coli is determined by measuring and comparing the yield of soluble and insoluble GST-wild type AGT fusion protein and GST-mutant AGT fusion protein from parallel E. coli expression cultures. Samples of the soluble fractions and insoluble fractions (i.e. the inclusion bodies) after cell lysis are subjected to SDS-PAGE, and the band staining intensities of the corresponding AGT fusion proteins are compared. Soluble protein is quantified after purification of the fusion protein from cell extracts by affinity chromatography (e.g. for GST-AGT fusion proteins by glutathione sepharose) by subjecting the purified fractions to a protein concentration assay (Bradford, Anal Biochem 72:248-54, 1976). The expression yield of similar proteins in the soluble fraction (difference in point mutations) can be used as a measure for protein stability in the unpurified as well as the purified state (Ohage et al., J Mol Biol 291:1119-1128, 1999; Wirtz et al., Protein Sci 8: 2245-50, 1999). Therefore, this is taken as a measure of folding stability and aggregation tendency.\nProtein expression from this vector is carried out in E. coli strain BL21. An exponentially growing culture is induced with 0.5 mM IPTG, and the expression is carried out for 3.5 h at 24° C.\nPurification: The harvested cells are resuspended in a buffer containing 50 mM phosphate, 0.5 M NaCl, 1 mM DTT, supplemented with 1 mM PMSF and 2 μg/ml aprotinin, and disrupted by lysozyme and sonification. The cell debris are separated by centrifugation at 40000×g. The extract is applied to pre-equilibrated glutathione sepharose (Amersham) which is then washed with 20 bed volumes (50 mM phosphate, 0.5 M NaCl, 1 mM DTT). The mutated GST-AGT fusion protein is eluted with 10 mM reduced glutathione in 50 mM Tris·HCl pH 7.9. The purified protein is dialyzed against 50 mM HEPES pH 7.2; 1 mM DTT; 30% glycerol and then stored at −80° C.\nDetermination of protein yield: Purity and relative amounts of the GST-AGT fusion proteins are compared by running samples on SDS-PAGE. UV spectra of the pure fractions are recorded using a Perkin Elmer Lambda 10. For protein samples containing no significant amount of DNA, the extinction at 280 nm as a measure of protein content is compared to that of wild type hAGT or PGEG-hAGT that were purified under the same conditions."}, "[3]": {"assay": "Periplasmic expression / stability under oxidizing conditions", "design": "species or system E. coli", "conditions": "for yield of active AGT mutant from expression in the periplasm: E. coli, compared to PGEG-hAGT", "method": "The activities towards AGT substrates are measured after purification without addition of reducing agents such as dithiothreitol or beta-mercaptoethanol. Alternatively, the activities of mutant AGT and wild type human are compared after their export into cellular compartments with oxidising redox potential (e.g. the periplasm of E. coli due to their fusion to appropriate signal sequences. Activity towards AGT substrates under reducing and oxidising conditions is compared by performing the reactions in the presence or absence of reducing agents such as dithiothreitol or beta-mercaptoethanol.\nThe mutant AGT gene of Example 1 is amplified and cloned as described in Example 1 with the oligonucleotides SEQ ID NO:3, SEQ ID NO:10 and SEQ ID NO:4, SEQ ID NO:9 causing the further mutation Cys62Ala in the gene upon their incorporation by PCR. Protein expression, purification and determination of yield is carried out as described in Example 1. The mutant gene is PCR amplified with the primers SEQ ID NO:11, SEQ ID NO:12 that contain SfiI restriction sites to subclone the gene in fusion to the g3 protein of filamentous phage in the vector pAK100 (Krebber et al., J Immunol Methods 201:35-55, 1997). […] The supernatant is directly subjected to quantification of protein yield via SDS-PAGE and activity assays as described in Example 1.\nStability under oxidizing conditions: The mutant gene is PCR amplified with the primers SEQ ID NO:11 and SEQ ID NO:28 to subclone the gene into pAK100, as described in Example 2. […] To compare the reactivity of […] (Juillerat et al., Chem Biol 10:313-317, 2003) and the mutant, samples are incubated with 1 µM BG-Bt for 50 min, quenched with SDS-Laemmli buffer and analyzed by western blotting using neutravidin peroxidase conjugate (Pierce) or a monoclonal mouse anti-FLAG IgG antibody (M2, Sigma) and a secondary anti-mouse-IgG::HRP conjugate, and Renaissance reagent plus (NEN). […] The anti-FLAG IgG antibody is used to estimate the total amount of soluble AGT protein, whereas neutravidin quantifies the reactive portion of it. […]"}}, "note": "Residue numbers refer to the chain shown, from its start. Some entries repeat one wording, which the source may state once for all of them.", "data": [{"molecule": "B1", "values": [{"measurement": "localization of fluorescently labeled AGT", "setting": "[1]", "result": "distribution throughout the cytoplasm"}, {"measurement": "expression rate", "setting": "[2]; compared to the mutants of Examples 1 through 5", "result": "further increased at least twofold"}, {"measurement": "active protein from periplasmic expression", "setting": "[3]; compared to PGEA-hAGT, normalized to protein yield", "result": "at least tenfold more"}]}, {"molecule": "B2", "values": [{"measurement": "localization of fluorescently labeled AGT", "setting": "[1]", "result": "distribution throughout the cytoplasm"}]}, {"molecule": "B3", "values": [{"measurement": "localization of fluorescently labeled AGT", "setting": "[1]", "result": "distribution throughout the cytoplasm"}]}, {"molecule": "B4", "values": [{"measurement": "yield of soluble GST fusion protein", "setting": "[2]; compared to PGEG-hAGT", "result": "at least two times higher"}]}, {"molecule": "B5", "values": [{"measurement": "yield of soluble GST fusion protein", "setting": "[2]; compared to PGEG-hAGT", "result": "at least two times higher"}]}, {"molecule": "B6", "values": [{"measurement": "subcellular localisation", "setting": "[1]; AGT-deficient HeLa cells or CHO cells", "result": "preferential localisation in the nucleus, and only marginal localisation in the cytoplasm"}]}, {"molecule": "B7", "values": [{"measurement": "localization of fluorescently labeled AGT", "setting": "[1]", "result": "distributed throughout the cytoplasm, no preferential nuclear localization can be detected"}, {"measurement": "yield of soluble GST fusion protein", "setting": "[2]; compared to PGEG-hAGT", "result": "at least three times more soluble protein"}]}, {"molecule": "B8", "values": [{"measurement": "yield of soluble GST fusion protein", "setting": "[2]; compared to PGEG-hAGT", "result": "at least two times higher"}, {"measurement": "yield of active AGT mutant from expression in the periplasm", "setting": "[3]", "result": "at least two times higher"}]}, {"molecule": "B9", "values": [{"measurement": "yield of soluble GST fusion protein", "setting": "[2]; compared to mutant of Example 1", "result": "at least two times higher"}, {"measurement": "yield of active AGT mutant from expression in the periplasm", "setting": "[3]", "result": "at least three times higher"}]}]}
